Results taken from publication PMC10499981.
Results are given in words; binding and its absence hold for the method and conditions named. Binding seen in cells or lysates may run through a third protein. Some binding calls cover weakened binding; strength is not graded here.

Protein sequences, listed by entry. Tags and fused reporters are not part of them.
UniProt P05412: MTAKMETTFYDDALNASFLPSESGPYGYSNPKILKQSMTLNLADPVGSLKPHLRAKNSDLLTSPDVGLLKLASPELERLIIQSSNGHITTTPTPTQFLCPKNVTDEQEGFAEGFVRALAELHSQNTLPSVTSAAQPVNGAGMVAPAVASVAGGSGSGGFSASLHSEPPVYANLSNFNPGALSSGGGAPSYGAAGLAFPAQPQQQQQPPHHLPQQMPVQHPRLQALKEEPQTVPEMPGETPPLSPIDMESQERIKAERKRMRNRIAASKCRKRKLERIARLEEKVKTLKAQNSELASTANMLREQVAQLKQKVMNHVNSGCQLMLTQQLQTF

What was measured:
[1] = target: c-Fos (endogenous) (human (endogenous in 5637)) (UniProt P01100); assay: co-IP; endogenous proteins in 5637 cells; lysate precleared with protein A/G beads, anti-RBPMS, anti-c-Fos or anti-c-Jun antibody overnight at 4 °C, protein A/G beads 2 h; Western blot
[2] = target: c-Jun (endogenous) (human (endogenous in 5637)) (UniProt P05412); assay: as above
[3] = target: c-Fos (exogenously expressed) (UniProt P01100); assay: co-IP; exogenous expressed proteins in T24 cells; lysis 48 h after transfection in 50 mM Tris-HCl pH 7.4, 150 mM NaCl, 0.1-0.5% NP-40; anti-FLAG/MYC antibody-conjugated agarose beads overnight; Western blot
[4] = target: c-Jun (in T24 cells, precipitated with an antibody against c-Jun) (UniProt P05412); assay: co-IP; T24 cells; precipitation with an antibody against c-Jun, blot for RBPMS

binding [1] | binding [2] | binding [3] | binding [4] | Substance
binds | no binding |  |  | RBPMS (endogenous) (from UniProt Q93062 1-196)
 |  | binds | no binding | RBPMS (exogenously expressed, tagged) (from UniProt Q93062 1-196)
